Results as given in patent publication US20250319056A1, “METHODS FOR TREATING CANCER” (THE TRUSTEES OF INDIANA UNIVERSITY, priority 2024, published 2025).
Some entries share one result that the patent states for a list of compounds.

Tested on: HCT-116 cells
Experiment: AlamarBlue cell viability assay, HCT-116 colon cancer cells
Type: cell-based, human
Conditions: colorectal cancer cells over non-cancer cells

CC[n+]1c(-c2ccccc2)c2cc(N)ccc2c2ccc(N)cc21 [Compound 73, Ethidium bromide, reference compound]
selectivity index (SI): greater than 5 fold
